PubChem BioAssay AID1224828 | NIAID, 2016

Purpose: 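Find genes required for NF-kappaB p65 moving into the nucleus after LPS in mouse macrophages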 (primary screen)
Cells: mouse RAW264.7 G9 macrophage reporter cells (GFP-p65, Tnf promoter-mCherry)
Reagents: siRNA pool against mouse genes, 100 nM
Time to read-out: 2 days siRNA transfection, then 40 min LPS before fixation
Conditions: LPS (Salmonella minnesota R595) at 10 ng/ml
Detection: 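Microscopy ratio of nuclear to perinuclear-ring GFP-p65 signal, scaled to the plate median; gene score is the average of two replicate robust z-scores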
Direction: p65 translocation robust z-score: higher = more nuclear NF-kappaB p65 after LPS than the plate median; nuclear/cytoplasmic p65 ratio: higher = more nuclear NF-kappaB p65
Active means: 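Active if robust z is above 3.3 (negative regulators) or below -1.56, the Tlr4 control median (positive regulators); activity score 50 or more; control wells not called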
Meaning of the calls: active = hit (p65 shift raised or lowered); inactive = no clear change
This is an unselected part of about 17,000 deposited reagents. 762 of all reagents (4.5%) count as active. 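Active calls include both raised and lowered p65 entry, mostly lowered; wells with fewer than 50 cells lack a z-score.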 Raw values are not corrected between plates. Unmarked entries are inactive.

gene symbol | p65 translocation robust z-score | nuclear/cytoplasmic p65 ratio, rep 1 | nuclear/cytoplasmic p65 ratio, rep 2 | low cell count flag
Tmco5a (transmembrane and coiled-coil domains 5A) | – | 1.18 | 1.12 | fewer than 50 cells per well; well left out of scoring
H3c15 (H3 clustered histone 15) | 0.06 | 0 | 1.57 | enough cells to score
Anxa3 (annexin A3) | 0.98 | 1.83 | 1.71 | enough cells to score
Aph1c (aph1 homolog C, gamma secretase subunit) | 1.48 | 1.7 | 1.69 | enough cells to score
Slc51b | -0.27 | 1.37 | 1.21 | enough cells to score
Trappc2b (trafficking protein particle complex 2B) | – | 1.27 | 1.19 | fewer than 50 cells per well; well left out of scoring
Ssb (small RNA binding exonuclease protection factor La) | 0.05 | 1.45 | 1.24 | enough cells to score
Tenm1 (teneurin transmembrane protein 1) | 0 | 1.75 | 1.5 | enough cells to score
Pheta2 (PH domain containing endocytic trafficking adaptor 2) | – | 1.05 | 0 | fewer than 50 cells per well; well left out of scoring
Dnai3 (dynein axonemal intermediate chain 3) | – | 1.25 | 1.29 | fewer than 50 cells per well; well left out of scoring
Ccl17 (C-C motif chemokine ligand 17) | 0 | 1.53 | 1.59 | enough cells to score
Exoc7 (exocyst complex component 7) | -2.13 (active) | 1.26 | 1.06 | enough cells to score
Pskh1 (protein serine kinase H1) | – | 1.83 | 1.57 | fewer than 50 cells per well; well left out of scoring
Meak7 (MTOR associated protein, eak-7 homolog) | -0.69 | 1.47 | 1.55 | enough cells to score
Mark2 (MAP/microtubule affinity regulating kinase 2) | -0.35 | 1.56 | 1.39 | enough cells to score
Tmem138 (transmembrane protein 138) | – | 1.25 | 1.74 | fewer than 50 cells per well; well left out of scoring
Btbd3 (BTB domain containing 3) | 0.89 | 1.41 | 1.65 | enough cells to score
Fbxl2 (F-box and leucine-rich repeat protein 2) | 0.6 | 1.63 | 1.37 | enough cells to score
Ptp4a3 (protein tyrosine phosphatase 4a3) | -0.82 | 1.46 | 1.23 | enough cells to score
Egfbp2 (epidermal growth factor binding protein type B) | 1.1 | 1.68 | 1.6 | enough cells to score
Dcdc5 (doublecortin domain containing 5) | – | 1.18 | 1.26 | fewer than 50 cells per well; well left out of scoring
Slc35g1 | – | 1.46 | 1.28 | fewer than 50 cells per well; well left out of scoring
C2cd5 (C2 calcium-dependent domain containing 5) | 1.46 | 1.49 | 1.72 | enough cells to score
Masp1 (MBL associated serine protease 1) | 1.52 | 1.95 | 1.77 | enough cells to score
Acacb (acetyl-Coenzyme A carboxylase beta) | 1.39 | 1.87 | 1.77 | enough cells to score
Ankrd52 (ankyrin repeat domain 52) | -0.42 | 1.58 | 1.36 | enough cells to score
Mcoln1 (mucolipin 1) | -0.28 | 1.41 | 1.3 | enough cells to score
Zfp646 (zinc finger protein 646) | -1.22 | 1.21 | 1.42 | enough cells to score
Klf15 (Kruppel-like transcription factor 15) | -0.39 | 1.5 | 1.26 | enough cells to score
Cyp8b1 (cytochrome P450, family 8, subfamily b, polypeptide 1) | 0.24 | 1.47 | 1.83 | enough cells to score
Syt7 (synaptotagmin VII) | -1.96 (active) | 1.11 | 0.901 | enough cells to score
E230025N22Rik (Riken cDNA E230025N22 gene) | 0.74 | 1.64 | 1.39 | enough cells to score
Pop5 | -0.73 | 1.29 | 1.13 | enough cells to score
Kif11 (kinesin family member 11) | – | 1.38 | 1.26 | fewer than 50 cells per well; well left out of scoring
Or2d36 (olfactory receptor family 2 subfamily D member 36) | – | 1.3 | 1.24 | fewer than 50 cells per well; well left out of scoring
Or5ak25 (olfactory receptor family 5 subfamily AK member 25) | 0.18 | 1.48 | 1.25 | enough cells to score
Creb3l1 (cAMP responsive element binding protein 3-like 1) | -2.06 (active) | 1.27 | 1.39 | enough cells to score
Lamc3 (laminin gamma 3) | 0.28 | 1.55 | 1.38 | enough cells to score
Grpr (gastrin releasing peptide receptor) | -1.25 | 1.32 | 1.41 | enough cells to score
Ccnd3 (cyclin D3) | 0.04 | 1.4 | 1.38 | enough cells to score

7 entries from above, showing only “p65 translocation robust z-score”.
Masp1 (MBL associated serine protease 1) = 1.52
Acacb (acetyl-Coenzyme A carboxylase beta) = 1.39
Ankrd52 (ankyrin repeat domain 52) = -0.42
Mcoln1 (mucolipin 1) = -0.28
Zfp646 (zinc finger protein 646) = -1.22
Klf15 (Kruppel-like transcription factor 15) = -0.39
Cyp8b1 (cytochrome P450, family 8, subfamily b, polypeptide 1) = 0.24
